Read-outs that look alike come from different tables or passages of the source. No constants are given. Whether binding was seen depends on the method and setting. In cells and extracts the contact can be indirect. Some results given as binding are weak or reduced against the parent protein; the word gives no strength. Values belong to the molecule of their own block, whether it stands above or below them.
Legend:
Experiment in all cases: co-IP
[1] = target: HA-MBD (methyl-binding domain of Mbd3) (UniProt Q9Z2D8)
2XFlag-WT-Mbd3 = 2XFlag-WT-Mbd3 (UniProt Q9Z2D8)
[2] = target: Chd4 (chromodomain helicase DNA binding protein 4) (mouse (endogenous in MEF and ES cells)) (UniProt Q6PDQ2)
[3] = target: 2XFlag-Mbd3 (DOX inducible allele, Rosa26-M2RtTA+/- Col1a:TetO-2XFlag-Mbd3+/-) (UniProt Q9Z2D8)
[4] = target: 2XFlag-Mbd3 (DOX inducible allele, Rosa26-M2RtTA+/- Col1a:TetO-2XFlag-Mbd3+/-) (UniProt Q9Z2D8); remark: listed apart in the source
2xFlag-ΔCCR-Mbd3 = 2xFlag-ΔCCR-Mbd3 (UniProt Q9Z2D8)
[5] = target: 2XFlag-Mbd3 (DOX inducible allele, Rosa26-M2RtTA+/- Col1a:TetO-2XFlag-Mbd3+/-) (UniProt Q9Z2D8); remark: listed apart in the source

Sequences of proteins named here, by UniProt entry; tags and fusion partners are left off. A change or cut given only in a name is not applied to a line headed by its entry. A line that says so, or that is headed by a name, gives the form on record, which may keep a tag or linker. Residues count along the entry.
UniProt Q9Z2D8: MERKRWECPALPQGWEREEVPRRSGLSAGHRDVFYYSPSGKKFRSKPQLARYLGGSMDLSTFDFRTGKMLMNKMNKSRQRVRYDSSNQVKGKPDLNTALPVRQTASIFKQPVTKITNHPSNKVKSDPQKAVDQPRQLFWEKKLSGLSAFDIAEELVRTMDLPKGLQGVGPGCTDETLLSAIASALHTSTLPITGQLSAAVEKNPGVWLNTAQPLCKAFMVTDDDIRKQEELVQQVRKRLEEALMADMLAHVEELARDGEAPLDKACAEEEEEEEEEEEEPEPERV
HA-MBD (methyl-binding domain of Mbd3): residues 1-170 of Q9Z2D8
2xFlag-ΔCCR-Mbd3 (Q9Z2D8, form named): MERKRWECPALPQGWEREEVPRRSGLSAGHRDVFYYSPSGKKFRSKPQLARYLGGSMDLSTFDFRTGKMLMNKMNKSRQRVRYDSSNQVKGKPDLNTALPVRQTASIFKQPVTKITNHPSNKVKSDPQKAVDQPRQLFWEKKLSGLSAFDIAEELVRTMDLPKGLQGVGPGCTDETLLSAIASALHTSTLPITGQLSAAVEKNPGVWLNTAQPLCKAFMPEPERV
UniProt Q6PDQ2: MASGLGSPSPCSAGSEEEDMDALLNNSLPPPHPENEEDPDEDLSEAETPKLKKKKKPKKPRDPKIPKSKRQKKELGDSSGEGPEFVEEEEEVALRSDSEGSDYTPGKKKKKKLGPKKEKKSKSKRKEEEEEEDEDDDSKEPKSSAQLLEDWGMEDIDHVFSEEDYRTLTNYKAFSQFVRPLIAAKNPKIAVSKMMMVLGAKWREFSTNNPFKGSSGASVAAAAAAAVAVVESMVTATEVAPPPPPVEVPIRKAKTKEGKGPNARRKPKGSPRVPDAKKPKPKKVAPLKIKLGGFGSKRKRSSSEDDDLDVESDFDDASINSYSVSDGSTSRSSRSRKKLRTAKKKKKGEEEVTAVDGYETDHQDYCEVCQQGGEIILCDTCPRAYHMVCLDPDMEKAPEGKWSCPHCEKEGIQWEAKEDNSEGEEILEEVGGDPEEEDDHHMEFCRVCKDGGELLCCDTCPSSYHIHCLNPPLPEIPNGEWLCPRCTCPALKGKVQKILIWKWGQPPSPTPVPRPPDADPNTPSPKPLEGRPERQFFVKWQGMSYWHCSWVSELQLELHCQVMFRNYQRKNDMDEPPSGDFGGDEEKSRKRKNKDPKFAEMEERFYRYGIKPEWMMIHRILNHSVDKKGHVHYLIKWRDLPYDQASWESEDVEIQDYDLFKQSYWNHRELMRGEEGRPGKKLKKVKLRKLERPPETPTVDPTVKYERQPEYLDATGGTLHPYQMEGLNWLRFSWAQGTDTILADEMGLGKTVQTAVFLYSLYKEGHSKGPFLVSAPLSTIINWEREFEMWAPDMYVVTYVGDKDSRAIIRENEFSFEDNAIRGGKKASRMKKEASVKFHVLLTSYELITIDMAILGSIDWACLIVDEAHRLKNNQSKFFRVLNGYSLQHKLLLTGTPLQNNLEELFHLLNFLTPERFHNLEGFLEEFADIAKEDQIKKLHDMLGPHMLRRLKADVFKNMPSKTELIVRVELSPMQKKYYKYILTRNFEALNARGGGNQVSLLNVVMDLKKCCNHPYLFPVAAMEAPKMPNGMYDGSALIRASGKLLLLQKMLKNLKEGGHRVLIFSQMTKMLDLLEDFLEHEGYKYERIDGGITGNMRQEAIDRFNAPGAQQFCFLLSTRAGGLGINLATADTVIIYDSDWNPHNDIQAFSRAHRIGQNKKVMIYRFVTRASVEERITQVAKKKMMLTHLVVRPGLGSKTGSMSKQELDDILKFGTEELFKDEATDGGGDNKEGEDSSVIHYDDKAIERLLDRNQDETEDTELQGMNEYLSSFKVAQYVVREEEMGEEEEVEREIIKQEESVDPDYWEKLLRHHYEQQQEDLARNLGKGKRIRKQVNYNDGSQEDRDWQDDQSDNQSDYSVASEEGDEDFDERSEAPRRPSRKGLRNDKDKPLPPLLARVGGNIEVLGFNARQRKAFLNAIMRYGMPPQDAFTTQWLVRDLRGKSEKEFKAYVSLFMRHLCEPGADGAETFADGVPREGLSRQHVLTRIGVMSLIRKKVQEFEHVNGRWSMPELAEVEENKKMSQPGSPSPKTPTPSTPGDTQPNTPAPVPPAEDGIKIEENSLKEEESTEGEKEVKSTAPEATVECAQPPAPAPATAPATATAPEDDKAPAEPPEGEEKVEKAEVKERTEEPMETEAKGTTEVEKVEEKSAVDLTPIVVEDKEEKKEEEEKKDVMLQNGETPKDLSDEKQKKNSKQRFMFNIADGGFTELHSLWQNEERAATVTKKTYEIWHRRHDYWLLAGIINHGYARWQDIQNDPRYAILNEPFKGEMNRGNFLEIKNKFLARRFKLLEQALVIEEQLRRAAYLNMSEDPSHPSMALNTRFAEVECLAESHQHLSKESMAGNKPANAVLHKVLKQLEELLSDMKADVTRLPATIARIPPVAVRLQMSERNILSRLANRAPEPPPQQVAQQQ
UniProt Q92769: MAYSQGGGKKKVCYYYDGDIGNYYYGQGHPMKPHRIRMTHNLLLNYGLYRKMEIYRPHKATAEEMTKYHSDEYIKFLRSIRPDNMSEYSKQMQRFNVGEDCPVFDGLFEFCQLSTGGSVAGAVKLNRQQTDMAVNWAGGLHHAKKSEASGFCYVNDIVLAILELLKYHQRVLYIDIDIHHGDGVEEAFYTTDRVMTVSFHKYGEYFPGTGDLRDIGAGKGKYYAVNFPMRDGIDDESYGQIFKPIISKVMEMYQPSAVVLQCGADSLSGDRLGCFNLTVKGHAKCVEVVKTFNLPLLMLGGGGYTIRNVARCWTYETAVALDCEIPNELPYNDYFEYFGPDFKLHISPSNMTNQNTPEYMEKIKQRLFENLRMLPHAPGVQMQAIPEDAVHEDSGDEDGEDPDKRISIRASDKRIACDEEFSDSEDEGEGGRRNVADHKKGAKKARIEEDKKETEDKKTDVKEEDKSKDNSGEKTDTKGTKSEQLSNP
UniProt Q9R190: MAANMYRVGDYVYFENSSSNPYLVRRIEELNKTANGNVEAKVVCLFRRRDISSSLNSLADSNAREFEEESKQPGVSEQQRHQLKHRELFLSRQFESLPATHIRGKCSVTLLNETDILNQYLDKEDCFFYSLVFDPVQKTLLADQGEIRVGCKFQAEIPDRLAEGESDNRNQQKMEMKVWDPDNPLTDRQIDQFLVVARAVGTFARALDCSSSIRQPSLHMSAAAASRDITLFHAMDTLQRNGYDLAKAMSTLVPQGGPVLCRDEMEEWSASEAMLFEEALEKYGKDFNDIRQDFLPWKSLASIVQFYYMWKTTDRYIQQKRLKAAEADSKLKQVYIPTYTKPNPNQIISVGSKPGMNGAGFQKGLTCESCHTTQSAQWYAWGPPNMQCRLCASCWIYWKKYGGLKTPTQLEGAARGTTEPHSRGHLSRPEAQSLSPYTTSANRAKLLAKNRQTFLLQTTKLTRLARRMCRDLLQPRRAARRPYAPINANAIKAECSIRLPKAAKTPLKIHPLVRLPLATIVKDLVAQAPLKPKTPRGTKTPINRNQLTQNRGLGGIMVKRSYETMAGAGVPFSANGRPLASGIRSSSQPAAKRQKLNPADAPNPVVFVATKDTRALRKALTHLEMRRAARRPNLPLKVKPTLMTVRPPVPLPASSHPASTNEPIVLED
UniProt Q14839: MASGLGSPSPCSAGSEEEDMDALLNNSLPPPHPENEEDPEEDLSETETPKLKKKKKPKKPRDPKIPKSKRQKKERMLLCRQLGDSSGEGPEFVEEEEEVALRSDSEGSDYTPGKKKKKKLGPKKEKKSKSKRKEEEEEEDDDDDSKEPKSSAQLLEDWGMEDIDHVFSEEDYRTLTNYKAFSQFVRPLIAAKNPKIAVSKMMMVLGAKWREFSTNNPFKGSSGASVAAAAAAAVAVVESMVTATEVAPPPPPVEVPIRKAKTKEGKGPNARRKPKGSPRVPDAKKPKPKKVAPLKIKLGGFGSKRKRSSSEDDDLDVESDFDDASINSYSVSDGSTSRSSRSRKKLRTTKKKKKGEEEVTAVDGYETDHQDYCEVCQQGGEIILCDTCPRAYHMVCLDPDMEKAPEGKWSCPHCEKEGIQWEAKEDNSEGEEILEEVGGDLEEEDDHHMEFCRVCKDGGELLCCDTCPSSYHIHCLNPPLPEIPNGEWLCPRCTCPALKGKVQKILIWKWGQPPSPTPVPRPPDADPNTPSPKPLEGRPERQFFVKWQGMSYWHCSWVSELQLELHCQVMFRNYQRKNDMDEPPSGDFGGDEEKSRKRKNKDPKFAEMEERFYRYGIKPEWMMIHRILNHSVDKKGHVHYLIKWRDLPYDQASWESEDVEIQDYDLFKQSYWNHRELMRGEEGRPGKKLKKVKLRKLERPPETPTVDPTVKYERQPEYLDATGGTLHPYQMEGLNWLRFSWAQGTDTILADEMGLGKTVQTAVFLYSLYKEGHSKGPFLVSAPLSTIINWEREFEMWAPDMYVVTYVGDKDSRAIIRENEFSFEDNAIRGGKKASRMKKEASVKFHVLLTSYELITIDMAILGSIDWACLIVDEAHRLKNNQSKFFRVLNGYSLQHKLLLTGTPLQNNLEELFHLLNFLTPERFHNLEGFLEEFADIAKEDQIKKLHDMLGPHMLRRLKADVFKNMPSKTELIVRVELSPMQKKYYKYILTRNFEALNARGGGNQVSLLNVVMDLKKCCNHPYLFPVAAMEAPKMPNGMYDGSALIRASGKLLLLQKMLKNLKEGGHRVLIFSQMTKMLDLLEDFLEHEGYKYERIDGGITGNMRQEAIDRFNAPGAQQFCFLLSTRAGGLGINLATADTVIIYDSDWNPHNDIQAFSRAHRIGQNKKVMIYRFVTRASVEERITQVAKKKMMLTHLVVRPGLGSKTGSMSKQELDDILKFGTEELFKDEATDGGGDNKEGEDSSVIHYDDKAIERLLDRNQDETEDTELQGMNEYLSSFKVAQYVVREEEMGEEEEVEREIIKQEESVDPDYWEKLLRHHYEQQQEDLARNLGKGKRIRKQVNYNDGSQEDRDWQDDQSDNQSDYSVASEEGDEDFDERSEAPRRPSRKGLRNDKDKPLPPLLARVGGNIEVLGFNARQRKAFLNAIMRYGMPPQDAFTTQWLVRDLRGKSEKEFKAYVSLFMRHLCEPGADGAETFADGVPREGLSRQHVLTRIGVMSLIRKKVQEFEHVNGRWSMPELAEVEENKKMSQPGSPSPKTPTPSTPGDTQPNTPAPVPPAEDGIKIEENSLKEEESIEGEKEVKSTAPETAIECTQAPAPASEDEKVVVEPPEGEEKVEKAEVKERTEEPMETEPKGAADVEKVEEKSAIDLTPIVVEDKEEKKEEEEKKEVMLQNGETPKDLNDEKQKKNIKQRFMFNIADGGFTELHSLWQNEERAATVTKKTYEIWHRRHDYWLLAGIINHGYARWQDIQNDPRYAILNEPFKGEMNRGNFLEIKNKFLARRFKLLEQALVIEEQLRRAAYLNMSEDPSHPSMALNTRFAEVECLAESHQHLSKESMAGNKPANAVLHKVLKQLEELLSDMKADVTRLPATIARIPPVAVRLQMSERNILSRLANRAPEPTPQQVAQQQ
UniProt Q8CHY6: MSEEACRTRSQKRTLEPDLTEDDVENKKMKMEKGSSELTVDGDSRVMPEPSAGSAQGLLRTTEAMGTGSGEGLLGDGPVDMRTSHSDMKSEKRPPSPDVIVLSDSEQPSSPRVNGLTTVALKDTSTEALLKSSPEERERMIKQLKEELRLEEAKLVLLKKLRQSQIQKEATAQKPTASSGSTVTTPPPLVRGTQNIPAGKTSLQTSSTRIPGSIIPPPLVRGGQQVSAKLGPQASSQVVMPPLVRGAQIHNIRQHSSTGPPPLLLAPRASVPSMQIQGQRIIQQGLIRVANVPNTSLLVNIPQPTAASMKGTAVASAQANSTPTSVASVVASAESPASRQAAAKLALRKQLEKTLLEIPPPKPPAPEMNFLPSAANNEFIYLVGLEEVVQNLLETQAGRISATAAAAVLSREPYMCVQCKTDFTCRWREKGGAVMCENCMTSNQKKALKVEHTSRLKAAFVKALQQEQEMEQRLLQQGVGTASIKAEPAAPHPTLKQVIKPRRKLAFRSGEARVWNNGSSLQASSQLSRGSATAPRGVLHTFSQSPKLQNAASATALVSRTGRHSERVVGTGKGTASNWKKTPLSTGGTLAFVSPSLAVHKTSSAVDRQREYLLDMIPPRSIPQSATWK

Molecule: Hdac2 (in 293T cells) (from UniProt Q92769 1-488)
- binding [1]: binds
- binding (2XFlag-WT-Mbd3): binds

Molecule: Mta2 (from UniProt Q9R190 1-668)
- binding [2]: binds
- binding [3]: binds
- binding [4]: binds

Molecule: endogenous Chd4 (293T cells) (from UniProt Q14839 1-1912)
- binding [1]: no binding
- binding (2xFlag-ΔCCR-Mbd3): no binding

Molecule: Gatad2a-WT (construct) (from UniProt Q8CHY6 1-629)
- binding (2XFlag-WT-Mbd3): binds

More lines, now with the values ahead:

- binding [2]: binds
Molecule: Gatad2a (from UniProt Q8CHY6 1-629)

- binding (2XFlag-WT-Mbd3): binds
Molecule: HA-Gatad2a-CCR1 (from UniProt Q8CHY6 140-174) (peptide)

- binding [5]: binds
B1: Cdk2ap1 (protein, UniProt O35207 1-114)
chain: MSYKPNLTAHMPAAALNAGSVHSPSTSMATSSQYRQLLSDYGPPSLGYTQGTGNSQVPQSKYAELLAIIEELGKEIRPTYAGSKSAMERLKRGIIHARSLVRECLAETERNARS
